Results as given in paper doi:10.1101/2025.10.26.679380.
No constants are given. Whether binding was seen depends on the method and setting. In cells and extracts the contact can be indirect. Some binding calls cover weakened binding; strength is not graded here.

The chains behind the UniProt entries cited, without tags or fusion partners.
UniProt P29590: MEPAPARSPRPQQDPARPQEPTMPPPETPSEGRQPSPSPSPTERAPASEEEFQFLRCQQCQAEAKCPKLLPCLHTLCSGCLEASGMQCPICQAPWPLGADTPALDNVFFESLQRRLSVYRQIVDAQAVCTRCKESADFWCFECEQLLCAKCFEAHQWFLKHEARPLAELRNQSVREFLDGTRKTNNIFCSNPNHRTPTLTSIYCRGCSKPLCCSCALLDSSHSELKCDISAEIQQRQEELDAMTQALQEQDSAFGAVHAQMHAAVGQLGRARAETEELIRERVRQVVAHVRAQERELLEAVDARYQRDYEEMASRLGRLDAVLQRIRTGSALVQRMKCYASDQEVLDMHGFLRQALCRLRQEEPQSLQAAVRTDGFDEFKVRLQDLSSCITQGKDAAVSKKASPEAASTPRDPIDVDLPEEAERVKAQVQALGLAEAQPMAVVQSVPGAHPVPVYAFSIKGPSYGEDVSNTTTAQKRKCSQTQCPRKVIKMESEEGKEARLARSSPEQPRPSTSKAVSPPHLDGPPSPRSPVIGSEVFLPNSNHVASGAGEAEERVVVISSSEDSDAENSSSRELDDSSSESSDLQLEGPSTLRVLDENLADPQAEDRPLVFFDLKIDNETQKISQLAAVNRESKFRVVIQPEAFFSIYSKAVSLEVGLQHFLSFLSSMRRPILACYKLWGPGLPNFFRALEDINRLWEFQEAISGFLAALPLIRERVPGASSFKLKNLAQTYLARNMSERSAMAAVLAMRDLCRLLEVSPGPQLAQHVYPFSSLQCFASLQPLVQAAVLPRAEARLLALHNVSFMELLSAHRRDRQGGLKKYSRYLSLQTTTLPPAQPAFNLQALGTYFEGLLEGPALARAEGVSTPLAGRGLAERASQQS

Target: promyelocytic leukaemia protein (PML), endogenous (human (endogenous in U-2OS)) (UniProt P29590)
Test: co-IP

B1: Anillin (ANLN), endogenous (protein, UniProt Q9NQW6 1-1124)
chain: MDPFTEKLLERTRARRENLQRKMAERPTAAPRSMTHAKRARQPLSEASNQQPLSGGEEKSCTKPSPSKKRCSDNTEVEVSNLENKQPVESTSAKSCSPSPVSPQVQPQAADTISDSVAVPASLLGMRRGLNSRLEATAASSVKTRMQKLAEQRRRWDNDDMTDDIPESSLFSPMPSEEKAASPPRPLLSNASATPVGRRGRLANLAATICSWEDDVNHSFAKQNSVQEQPGTACLSKFSSASGASARINSSSVKQEATFCSQRDGDASLNKALSSSADDASLVNASISSSVKATSPVKSTTSITDAKSCEGQNPELLPKTPISPLKTGVSKPIVKSTLSQTVPSKGELSREICLQSQSKDKSTTPGGTGIKPFLERFGERCQEHSKESPARSTPHRTPIITPNTKAIQERLFKQDTSSSTTHLAQQLKQERQKELACLRGRFDKGNIWSAEKGGNSKSKQLETKQETHCQSTPLKKHQGVSKTQSLPVTEKVTENQIPAKNSSTEPKGFTECEMTKSSPLKITLFLEEDKSLKVTSDPKVEQKIEVIREIEMSVDDDDINSSKVINDLFSDVLEEGELDMEKSQEEMDQALAESSEEQEDALNISSMSLLAPLAQTVGVVSPESLVSTPRLELKDTSRSDESPKPGKFQRTRVPRAESGDSLGSEDRDLLYSIDAYRSQRFKETERPSIKQVIVRKEDVTSKLDEKNNAFPCQVNIKQKMQELNNEINMQQTVIYQASQALNCCVDEEHGKGSLEEAEAERLLLIATGKRTLLIDELNKLKNEGPQRKNKASPQSEFMPSKGSVTLSEIRLPLKADFVCSTVQKPDAANYYYLIILKAGAENMVATPLASTSNSLNGDALTFTTTFTLQDVSNDFEINIEVYSLVQKKDPSGLDKKKKTSKSKAITPKRLLTSITTKSNIHSSVMASPGGLSAVRTSNFALVGSYTLSLSSVGNTKFVLDKVPFLSSLEGHIYLKIKCQVNSSVEERGFLTIFEDVSGFGAWHRRWCVLSGNCISYWTYPDDEKRKNPIGRINLANCTSRQIEPANREFCARRNTFELITVRPQREDDRETLVSQCRDTLCVTKNWLSADTKEERDLWMQKLNQVLVDIRLWQPDACYKPIGKP
B1 was tested. Which binding did it give?
Its binding is “binds”.
